From publication PMC2750754 come the findings set out here.

Chains of the proteins cited; added tags and fusions are not shown. Lines headed by an entry give the natural chain unless they say otherwise; changes in a name come on top.
UniProt Q16665: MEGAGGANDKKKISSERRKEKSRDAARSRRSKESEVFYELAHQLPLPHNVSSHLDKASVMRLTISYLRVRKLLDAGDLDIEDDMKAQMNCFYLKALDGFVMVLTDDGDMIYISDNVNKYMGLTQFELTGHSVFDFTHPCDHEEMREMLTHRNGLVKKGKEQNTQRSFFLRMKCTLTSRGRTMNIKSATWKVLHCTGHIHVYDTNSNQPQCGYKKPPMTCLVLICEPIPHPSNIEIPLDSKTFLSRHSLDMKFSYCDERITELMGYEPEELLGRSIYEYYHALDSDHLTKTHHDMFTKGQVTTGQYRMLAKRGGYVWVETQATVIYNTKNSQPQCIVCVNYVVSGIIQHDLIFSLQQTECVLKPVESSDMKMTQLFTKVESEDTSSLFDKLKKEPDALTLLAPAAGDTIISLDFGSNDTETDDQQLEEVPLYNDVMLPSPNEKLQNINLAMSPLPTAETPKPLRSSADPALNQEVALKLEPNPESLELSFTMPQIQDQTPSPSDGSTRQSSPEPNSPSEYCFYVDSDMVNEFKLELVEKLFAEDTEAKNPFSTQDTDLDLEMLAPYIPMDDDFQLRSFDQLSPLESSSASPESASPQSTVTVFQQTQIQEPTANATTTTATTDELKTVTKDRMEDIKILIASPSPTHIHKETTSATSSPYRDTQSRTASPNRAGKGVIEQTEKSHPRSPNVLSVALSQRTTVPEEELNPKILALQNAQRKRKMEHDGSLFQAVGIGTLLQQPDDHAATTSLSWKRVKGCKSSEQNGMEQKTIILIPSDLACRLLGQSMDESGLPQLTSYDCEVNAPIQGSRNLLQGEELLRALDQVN
UniProt Q8N668: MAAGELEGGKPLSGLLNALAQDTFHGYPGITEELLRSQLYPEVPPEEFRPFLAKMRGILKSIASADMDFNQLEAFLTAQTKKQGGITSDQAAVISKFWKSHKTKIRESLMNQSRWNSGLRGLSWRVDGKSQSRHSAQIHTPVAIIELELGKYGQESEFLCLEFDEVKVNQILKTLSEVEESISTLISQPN
UniProt P08238: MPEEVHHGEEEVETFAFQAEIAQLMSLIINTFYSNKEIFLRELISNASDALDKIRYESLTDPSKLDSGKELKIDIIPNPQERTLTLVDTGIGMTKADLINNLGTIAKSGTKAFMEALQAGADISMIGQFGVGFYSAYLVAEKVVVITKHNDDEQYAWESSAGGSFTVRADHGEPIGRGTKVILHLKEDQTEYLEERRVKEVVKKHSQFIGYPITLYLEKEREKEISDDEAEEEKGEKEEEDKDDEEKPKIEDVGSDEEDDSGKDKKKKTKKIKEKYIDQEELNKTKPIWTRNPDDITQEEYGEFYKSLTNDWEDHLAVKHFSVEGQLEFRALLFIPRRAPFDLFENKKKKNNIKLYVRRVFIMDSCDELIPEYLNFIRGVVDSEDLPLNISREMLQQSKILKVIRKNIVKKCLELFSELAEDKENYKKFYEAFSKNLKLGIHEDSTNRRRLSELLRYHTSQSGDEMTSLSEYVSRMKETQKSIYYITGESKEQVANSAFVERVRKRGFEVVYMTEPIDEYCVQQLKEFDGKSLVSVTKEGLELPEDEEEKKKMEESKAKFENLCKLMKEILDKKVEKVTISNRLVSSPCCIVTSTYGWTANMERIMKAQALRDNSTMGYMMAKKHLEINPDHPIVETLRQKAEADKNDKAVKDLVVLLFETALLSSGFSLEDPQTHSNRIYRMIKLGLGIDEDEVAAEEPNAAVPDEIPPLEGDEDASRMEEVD

Results are given in words; binding and its absence hold for the method and conditions named. Binding seen in cells or lysates may run through a third protein. Some binding calls cover weakened binding; strength is not graded here.

Test [1] concerns the target Flag-HIF-1α (P402A/P564A) (UniProt Q16665). As to the kind of experiment: co-IP; anti-Flag immunoprecipitation from whole cell lysates of transfected HEK 293T cells, Western blot; cells treated with vehicle, 17-AAG (2 µM, 8 hr) or MG132 (5 µM, 8 hr) in some panels; lysis buffer 0.4 M NaCl, 0.1% NP-40, 10 mM Tris-HCl pH 8.0, 1 mM EDTA.
The target in test [2] is Flag-HIF-1α (UniProt Q16665). The test is described as above.
In test [3] the target is Flag-HIF-1α (UniProt Q16665). The test can be described thus: co-IP; sequential immunoprecipitation: anti-Flag precipitates from HEK 293T lysates (cells treated with 17-AAG 2 µM, 8 hr) eluted with Flag-peptide, eluates re-precipitated with anti-HA antibody; Western blot.

As to COMMD1-Ha (from UniProt Q8N668 1-190), the binding entry (in test [1]; in the test with Flag-HIF-1α [2]; with Flag-HIF-1α [3]) was “binds” each time.
For Ha-HSP90β (from UniProt P08238 1-724), the binding result (in test [1]; in the test with Flag-HIF-1α [2]) was “binds” throughout.
